Assay results: PubChem BioAssay AID504467 (National Center for Advancing Translational Sciences (NCATS), 2011)
About 7,700 (2.3%) of roughly 330,000 compounds were called active. Inconclusive results, whose numbers are uncertain, are shown with a selection of clear calls. Calls follow the shape of the dose curve; as a rule, active = well fitted inhibition curve with a large enough effect; inconclusive = small, poorly fitted or top-dose-only effect, or effect the other way; inactive = flat fitted curve, though single readings scatter. Where the call is inconclusive, the potency comes from a doubtful curve fit.

Assay: qHTS screen for small molecules that inhibit ELG1-dependent DNA repair in human embryonic kidney (HEK293T) cells expressing luciferase-tagged ELG1; also: nearly all actives have a fitted effect of over 55% in size
Settings: HEK293T ELG1-luciferase reporter, luminescence, 16 h, DNA damage induced by 5-fluorouridine; series mostly up to 46.1 µM
Procedure, shortened: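 Luminescence from the luciferase reporter, measured 30 min after ONE-Glo reagent at room temperature, was the read-out. Beforehand, 2,000 cells per well were exposed for 16 hr at 37 °C to 5-fluorouridine together with compound or vehicle.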
Potency is read from the fitted curve at half-maximal effect.

Compound | Potency
Clc1nssc1=Nc1ccccc1 | inconclusive: 8.2 µM [inhibitor, partial curve]
Cc1ccc(C)c(-c2csc(NC(=O)C3=COCCO3)n2)c1 | inconclusive: 20.6 µM [activator, single point]
CC1CN(S(=O)(=O)c2cccc(C(F)(F)F)c2)CC(C)O1 (configuration not stated) | inconclusive: 0.0164 µM [activator, partial curve, poor fit]
CCOC(=O)C(NCCc1ccccc1F)(NC(C)=O)C(F)(F)F (configuration not stated) | inconclusive: 32.6 µM [activator, partial curve, poor fit]
CCN1CCN(CCOc2cccc(Oc3ccccc3)c2)CC1 | inactive
C/C(=N\Nc1ccc(Cl)c(C(=O)O)c1)c1ccc(N2CCOCC2)cc1 | inconclusive: 23.1 µM [activator, partial curve]
CCn1c(SCC(=O)c2c(N)n(C3CC3)c(=O)[nH]c2=O)nc2cc(S(N)(=O)=O)ccc21 | inactive
CCn1c(Cc2cccc3ccccc23)nnc1SCC(=O)Nc1nccs1 | inconclusive: 8.2 µM [inhibitor, partial curve, poor fit]
COc1ccc(C(=O)/C(=C/N(C)C)S(=O)(=O)c2ccccc2)cc1 | inconclusive: 6.51 µM [activator, single point]
COc1ccccc1N1CCN(C(=O)C2CCN(S(=O)(=O)c3ccc4c(c3)CC(C)N4C(C)=O)CC2)CC1 (configuration not stated) | inactive
Cc1ccnc(SCC(=O)n2c3c(c4ccccc42)CC(C)CC3)n1 (configuration not stated) | inconclusive: 22.4 µM [activator, single point]
Cc1ccc(S(=O)(=O)N/N=C\c2ccc3c(c2)OCO3)c(C)c1 | inactive
CN(C)Cc1c(O)ccc2cc(-c3nc4ccccc4n3C)c(=O)oc12 | inconclusive: 29.1 µM [activator, single point]
CCC(C)NC(=O)CSc1nnc(-c2cc(-c3cccs3)nc3ccccc23)o1 (configuration not stated) | inconclusive: 23.1 µM [inhibitor, single point]
O=C(NCCNC(=O)c1ccccc1F)c1ccccn1 | inactive
CC(=O)c1c(C)[nH]c(C(=O)CSc2nnc(NC3CC3)s2)c1C | inconclusive: 20.6 µM [inhibitor, single point]
CCN(CC)S(=O)(=O)c1cccc(NC(=O)CSc2nnc(N)s2)c1 | inactive
O=C(Nc1nnc(C2=COCCO2)o1)c1cccc([N+](=O)[O-])c1 | inactive
COc1ccc2[nH]c(=O)c(CN(Cc3cccs3)C(=S)Nc3ccccc3)cc2c1 | inconclusive: 23.1 µM [inhibitor, partial curve]
CC(C)OC(=O)CC(=O)CSc1nc2c(cc1C#N)CCCCC2 | inconclusive: 29.1 µM [activator, single point]
Cc1ccc(OCCOC(=O)c2sc(=S)n(C)c2C)cc1 | inconclusive: 20.6 µM [activator, partial curve, poor fit]
CCn1nnnc1SCC(=O)Nc1nc(-c2cccs2)cs1 | inactive
Cc1ccc(C(=O)N/C(=C\c2ccc(-c3cc(Cl)ccc3Cl)o2)C(=O)NCc2cccnc2)cc1 | inconclusive: 18.4 µM [activator, partial curve]

Compound | Potency
CSc1nc2ccc3nc(NC(=O)c4ccccc4)sc3c2s1 | inconclusive: 5.17 µM [activator, full curve, poor fit]
O=C(COC(=O)c1ccccc1OCc1ccc(F)cc1)NCC1CCCO1 (configuration not stated) | inconclusive: 20.6 µM [inhibitor, single point]
CCOc1ccc(-c2nc(-c3cccnc3)no2)cc1OCC | inactive
CCOC(=O)c1c(O)c2c(n(Cc3ccco3)c1=O)CCCC2 | inconclusive: 25.9 µM [inhibitor, single point]
COc1ccc(OC)c(-c2cc(C3CCN(c4ncccc4[N+](=O)[O-])CC3)[nH]n2)c1 | inconclusive: 18.4 µM [inhibitor, single point]
Cc1nc2c(-c3ccccc3)c(C)nn2c(C)c1CCC(=O)NC(C)CCc1ccco1 (configuration not stated) | inconclusive: 18.4 µM [inhibitor, single point]
O=C1/C(=N\S(=O)(=O)c2cccs2)C([n+]2ccc(CCCc3ccccc3)cc2)=C([O-])c2ccccc21 | active: 13 µM
COc1cc(OC)cc(-c2cc(N)n(S(=O)(=O)Cc3ccccc3)n2)c1 | inconclusive: 20.6 µM [inhibitor, single point]
O=C(Cn1ncc(Cl)c(Cl)c1=O)N1CCc2ccccc21 | inconclusive: 23.1 µM [inhibitor, single point]
COc1ccc(NC(=O)CN(C)C(=O)C2CCCO2)cc1 (configuration not stated) | inconclusive: 18.3 µM [activator, partial curve]
Cc1c(NC(=O)c2cccc(NC(=O)Cc3c(F)cccc3Cl)c2)c(=O)n(-c2ccccc2)n1C | inconclusive: 23.1 µM [inhibitor, single point]
CCN(CC)S(=O)(=O)c1ccc2[nH]c(=O)cc(C(=O)Nc3ccc(C)cc3)c2c1 | inconclusive: 29.1 µM [activator, single point]
O=C(COC(=O)c1cccnc1Cl)c1ccc(F)cc1 | inconclusive: 20.6 µM [activator, single point]
Cc1ccc2c(c1)nnn2C1CCN(S(=O)(=O)c2ccc(C(=O)N(C)C)cc2)CC1 | active: 18.4 µM
COc1ccc(CCNC(=O)CN2C(=O)COc3ccc(S(=O)(=O)N4CCOCC4)cc32)cc1OC | inactive
COc1ccc(N(C)S(=O)(=O)c2cccc(C(=O)Nc3nnc(C4CC4)s3)c2)cc1 | inconclusive: 16.4 µM [inhibitor, partial curve, poor fit]
Cc1nc(C(F)(F)F)c(C(=O)N/N=C(\N)c2ccccn2)s1 | inconclusive: 6.51 µM [inhibitor, single point]
CSc1ncc(Cl)c(C(=O)Nc2cccc(Cl)c2)n1 | inactive
Cc1ccc(-c2nnc(NC(=O)Cc3ccc(F)cc3)o2)c(C)c1 | inactive
CC(C)Oc1ccc(/C=N/NC(=O)c2ccc(N(Cc3ccccc3)S(C)(=O)=O)cc2)cc1 | inconclusive: 29.1 µM [inhibitor, single point]
CCCCCOC(=O)NCCOC(=O)Nc1ccc(C(=O)OCC)cc1 | inconclusive: 20.6 µM [inhibitor, partial curve, poor fit]
CC(=O)c1cccc(NC(=S)NC(=O)c2ccccc2)c1 | inconclusive: 8.2 µM [activator, partial curve]
CCc1ccc(N2Cc3ccccc3C2)cc1 | inconclusive: 11.6 µM [activator, partial curve]

Compound | Potency
Cc1cc(=O)oc2cc(OCC(=O)OCC(=O)Nc3ccc4ccccc4c3)ccc12 | inconclusive: 16.4 µM [activator, single point]
COc1ccccc1CNn1c(-c2cccc(C)c2)nc2ccccc2c1=O | inconclusive: 3.26 µM [inhibitor, partial curve, poor fit]
COc1ccc(-c2nc(CCl)cs2)cc1 | inconclusive: 20.6 µM [activator, partial curve]
CCOc1ccc(-c2nc(S(=O)(=O)c3ccccc3)c(NCc3cccnc3)o2)cc1 | active: 14.6 µM
COc1ccc(C(=O)/C=C/C(=O)N(CC(=O)NCCC(C)C)Cc2cccs2)c(O)c1 | inconclusive: 18.3 µM [inhibitor, single point]
FC(F)(F)c1cccc(NC(=S)Nc2cccc(NC(=S)Nc3cccc(C(F)(F)F)c3)n2)c1 | inconclusive: 29.1 µM [inhibitor, single point]
COc1ccc(NC(=O)C23CC4CC(C2)CC(c2ccccc2)(C4)C3)c(OC)c1 | inactive
CCN(CC)CCOc1ccccc1C(C)=O | inactive
Cc1cccc(N/N=C(\C=N\N)C(=O)c2ccc(Br)cc2)c1 | inactive
COc1cccc(/C=N/Nc2nc(C)cc(=O)[nH]2)c1OC | inconclusive: 23.1 µM [activator, partial curve]
Cn1c(=O)c2c(nc(Br)n2Cc2ccc3ccccc3c2)n(C)c1=O | inconclusive: 20.6 µM [inhibitor, single point]
C=CCN(C1CCCCC1)S(=O)(=O)c1ccc2c(c1)oc(=O)n2C | inactive
CCNC(=O)C(=O)NCC1CCCN1S(=O)(=O)c1cccs1 (configuration not stated) | inactive
OC(COc1ccccc1)CN(Cc1ccccc1)CC(O)COc1ccccc1 (configuration not stated) | inconclusive: 3.55 µM [inhibitor, single point]
CC(=O)c1ccc(NC(=O)c2sc3nc(C)c(C)c(C)c3c2N)cc1 | inconclusive: 2.06 µM [activator, partial curve]
O=C(COc1ncnc2ccccc12)Nc1cc([N+](=O)[O-])ccc1F | inconclusive: 11.6 µM [activator, partial curve, poor fit]
O=[N+]([O-])c1ccccc1OCc1nc(-c2cccs2)no1 | inconclusive: 16.4 µM [activator, partial curve]
CN1CCN(C(=O)c2ccc(-c3cccs3)s2)CC1 | inconclusive: 9.2 µM [activator, partial curve]
CCCC(=O)Nc1ccc2oc(-c3ccc(OC)c(Br)c3)nc2c1 | inconclusive: 29.1 µM [activator, single point]
CC(C)(C)c1n[nH]c(=S)n(/N=C/c2cccs2)c1=O | inconclusive: 14.6 µM [activator, partial curve]
CCOC(=O)C1CCN(C(=O)C2CCCN(S(=O)(=O)c3ccc(OCC)c(Cl)c3)C2)CC1 (configuration not stated) | inconclusive: 0.92 µM [inhibitor, partial curve, poor fit]

Ordered by heavy-atom count (high to low): part of the list above
Compound | Potency
CCN(CC)S(=O)(=O)c1cccc(NC(=O)CSc2nnc(N)s2)c1 | inactive
O=[N+]([O-])c1ccccc1OCc1nc(-c2cccs2)no1 | inconclusive: 16.4 µM [activator, partial curve]
Clc1nssc1=Nc1ccccc1 | inconclusive: 8.2 µM [inhibitor, partial curve]
